Here are results for 39 compounds from the supplement of paper PMC8256030.

Several values for one entry are separate records, joined by “and”; a condition that tells them apart may be missing. Identical values can stand only once. Counter-ions that a name gives are not always drawn. The list shows a part of the results. Repeats in this data set agree poorly, so a single value says little.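 HEK293T cells were given each compound shortly before transfection with a reporter in which red mCherry is followed by the SARS-CoV-2 frameshift element and then GFP in the −1 frame, so GFP appears only after frameshifting.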

This test concerns HEK293T. Briefly: percent viability (nuclei count) relative to control; higher = more viable cells. The following applies: 10 µM; 24 h.
On to `O=c1oc2ccccc2c(O)c1Cc1c(O)c2ccccc2oc1=O`, for which the percent viability came to 169%.

Take `CC(c1ccccc1)C1Nc2cc(Cl)c(S(N)(=O)=O)cc2S(=O)(=O)N1` (centres undefined) [bemetizide]: the percent viability was 362%.

For `C[N+]1(C)[C@@H]2C[C@@H](OC(=O)C(O)(c3cccs3)c3cccs3)C[C@H]1[C@@H]1O[C@@H]12` [Spiriva], the percent viability turned out to be 42.9%.

As for `CO[C@@]1(NC(=O)C2SC(=C(C(N)=O)C(=O)O)S2)C(=O)N2C(C(=O)O)=C(CSc3nnnn3C)CS[C@@H]21` (some centres undefined) [Cefotan], the percent viability was 105%.

`CC1(C)S[C@@H]2[C@H](NC(=O)COc3ccccc3)C(=O)N2[C@H]1C(=O)O`: the percent viability worked out at 92%.

With `C=CC[C@@H]1/C=C(\C)C[C@H](C)C[C@H](OC)[C@H]2O[C@@](O)(C(=O)C(=O)N3CCCC[C@H]3C(=O)O[C@H](/C(C)=C/[C@@H]3CC[C@@H](O)[C@H](OC)C3)[C@H](C)[C@@H](O)CC1=O)[C@H](C)C[C@@H]2OC` [Tacrolimus], the percent viability is 388%.

Regarding `CCN1CCCC(OC(=O)C(c2ccccc2)c2ccccc2)C1` (centres undefined) [piperidolate], the percent viability came to 251%.

Consider `COc1ccccc1N1CCN(CC(O)COc2cc(OC)c(OC)c(OC)c2)CC1` (centres undefined) [enciprazine], for which the percent viability is 79.4%.

Turning to `CCOC(=O)[C@H](CCc1ccccc1)N[C@H]1CCCN2CCC[C@@H](C(=O)O)N2C1=O` [Inhibace], the percent viability was found to be 200%.

In the case of `CN(C)c1cnccn1`, the percent viability was determined as 215%.

In the case of `CCCCCCCCCCOc1cc2c(O)c(C(=O)OCC)cnc2cc1OCC` [decoquinate], the percent viability came out at 242%.

As to `Cc1c(C(C)C)c(=O)n(-c2ccccc2)n1C` [propyphenazone], the percent viability amounted to 106%.

With `Cc1cc(C)nc(NS(=O)(=O)c2ccc(N)cc2)n1` [sulfadimidine], the percent viability came out at 186%.

With `CC(C)(C#N)c1cc(Cn2cncn2)cc(C(C)(C)C#N)c1` [anastrozole], the percent viability was 130% and 331%.

As to `C=CCc1ccccc1OCC(O)CNC(C)C` (centres undefined) [Alprenolol·HCl], the percent viability was determined as 176%.

As to `OC1C(O)C(O)C(O)C(O)C1O` (centres undefined), the percent viability came out at 139%.

On to `CC(C)C[C@@H]1NC(=O)[C@H](CCCN)NC(=O)[C@H](C(C)C)NC(=O)[C@H](Cc2ccc(O)cc2)N[C@@H](CCC(=O)O)C(=O)N[C@@H](CC(N)=O)C(=O)[C@@H](Cc2ccccc2)NC(=O)[C@H](Cc2ccccc2)NC(=O)[C@@H]2CCCN2C(=O)[C@@H](Cc2ccccc2)NC1=O` [tyrothricin], for which the percent viability worked out at 58.7%.

Turning to `Cc1ccc(=O)n(-c2ccccc2)c1` [pirfenidone], the percent viability was found to be 159%.

With `CC(C)(C)NC(=O)[C@@H]1C[C@@H]2CCCC[C@@H]2CN1C[C@@H](O)[C@H](Cc1ccccc1)NC(=O)[C@H](CC(N)=O)NC(=O)c1ccc2ccccc2n1` [Invirase], the percent viability turned out to be 353%.

In the case of `CC(C)(C)NCC(O)COc1cccc2c1C[C@H](O)[C@H](O)C2` (some centres undefined), the percent viability was 254%.

For `Cc1cn([C@H]2C[C@H](F)[C@@H](CO)O2)c(=O)[nH]c1=O` [alovudine], the percent viability was found to be 362%.

`CNCCCC1(c2ccccc2)SC(C)(C)c2ccccc21` (centres undefined) [talsupram]: the percent viability was determined as 164%.

As for `Clc1ccc(OCC2=NCCc3ccccc32)cc1` [famotine], the percent viability was 234%.

On to `CCCC(=O)OCOC(=O)C1=C(C)NC(C)=C(C(=O)OC)C1c1cccc(Cl)c1Cl` (centres undefined) [Clevidipine], for which the percent viability was 346%.

For the compound `C[n+]1ccccc1/C=N/O`, the percent viability came to 450%.

On to `CC=CC(=O)N(CC)c1ccccc1C`, for which the percent viability was 240%.

`O=C(CCCl)NCCc1ccccc1` [fenaclon]: the percent viability came to 80%.

`C[C@H](C(=O)O)c1ccc(-c2ccccc2)c(F)c1` [esflurbiprofen]: the percent viability was 365%.

As to `CN1CCCC(n2nc(Cc3ccc(Cl)cc3)c3ccccc3c2=O)CC1` (centres undefined) [azelastine], the percent viability was found to be 283%.

In the case of `O=C1CN(/N=C/c2ccc(-c3ccc([N+](=O)[O-])cc3)o2)C(=O)N1`, the percent viability worked out at 275%.

As for `Cc1ccc(N(CC2=NCCN2)c2cccc(O)c2)cc1` [phentolamine], the percent viability is 188% and 172%.

For the compound `N[C@H](Cc1cc(I)c(Oc2cc(I)c(O)c(I)c2)c(I)c1)C(=O)O` [Choloxin], the percent viability was found to be 247%.

As for `CC[C@]1(O)C[C@@H]2CN(CCc3c([nH]c4ccccc34)[C@@](C(=O)OC)(c3cc4c(cc3OC)N(C)[C@H]3[C@@](O)(C(=O)OC)[C@H](OC(C)=O)[C@]5(CC)C=CCN6CC[C@]43[C@@H]65)C2)C1`, the percent viability turned out to be 22.6%.

Turning to `CC=CC(=O)N(CC)c1ccccc1C` [crotamiton], the percent viability worked out at 296%.

`NC(=O)C(c1ccccc1)(c1ccccc1)[C@@H]1CCN(CCc2ccc3c(c2)CCO3)C1` [Enablex]: the percent viability turned out to be 342%.

With `CN1C(=O)OC(C)(C)C1=O` [trimethadione], the percent viability came out at 391%.

Regarding `NC(=NCCCCCCN=C(N)N=C(N)Nc1ccc(Cl)cc1)N=C(N)Nc1ccc(Cl)cc1`, the percent viability came out at 220%.

For the compound `OC(Cn1cncn1)(Cn1cncn1)c1ccc(F)cc1F` [fluconazole], the percent viability was 324% and 215%.

As for `CC(S)C(=O)NCC(=O)O` (centres undefined) [tiopronin], the percent viability was 42.1%.
